# Reference: the supplement of paper PMC8728848
# Some of the results follow.
# B1: GS13971A-bth-447-22-447 (Bacteroides thetaiotaomicron) (protein)
# chain: EDVDNERSKGMFSASQSGFSTIEVYDLGPLNKIDLSIAKAGLEDTGGTVTFSVEQSLLDSLNNADGTSYQLLPPECYTIENATYSVSPGGDRRVTGGSLVYDPHKIYNLCGFDELKYVLPLRVSSTGTPMNSDRTATLYGFIVKEAIVRLASTGGDFVVEGGTTTSPMNLDTEISFENEWDLTTSFATKGADYVDNYNSANSTYYIPLPSDFYTLPDVTIAKGKTTGGSAISLLGETLPPGNYLLPVSLGGLSGQGDASINIDKETVANYFVIKQGGPINRDHWTVTANTEEKTGEVSAAYPHNGQTISLIDGEINTFWHSKWQGGEVAPPYEIILDMGKENSVSQLGLIARQNALTSMNLEIYAGDDGETWNLIGKYFFDGSIKTEQMVPVKACDARWIRIYIPTLGSGSSVGHLAEIYVYGTDK
# Key:
# Assay in all cases: glycan array binding signal (z-score within array); higher = stronger binding
# Conditions in all cases: glycan notation: IUPAC condensed, linker removed
# [1] = molecular target: Gal(b1-4)GlcNAc(b1-3)Gal(b1-4)GlcNAc(b1-3)Gal(b1-4)GlcNAc(b1-3)Gal(b1-4)GlcNAc(b1-2)Man(a1-3)[Gal(b1-4)GlcNAc(b1-3)Gal(b1-4)GlcNAc(b1-3)Gal(b1-4)GlcNAc(b1-3)Gal(b1-4)GlcNAc(b1-2)Man(a1-6)]Man(b1-4)GlcNAc(b1-4)[Fuc(a1-6)]GlcNAc
# Method in brief: (§1)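 The binding signal is a Z-score computed within each array and averaged over linkers. Arrays of the same protein sequence at different concentrations or buffers were also averaged together. Data originate from 3228 arrays in the Consortium for Functional Glycomics database, kept only where the protein sequence was available.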
# [2] = molecular target: Gal(b1-4)GlcNAc(b1-3)Gal(b1-4)GlcNAc(b1-3)Gal(b1-4)GlcNAc(b1-3)Gal(b1-4)GlcNAc(b1-2)[Gal(b1-4)GlcNAc(b1-3)Gal(b1-4)GlcNAc(b1-3)Gal(b1-4)GlcNAc(b1-3)Gal(b1-4)GlcNAc(b1-6)]Man(a1-6)[Gal(b1-4)GlcNAc(b1-3)Gal(b1-4)GlcNAc(b1-3)Gal(b1-4)GlcNAc(b1-3)Gal(b1-4)GlcNAc(b1-2)Man(a1-3)]Man(b1-4)GlcNAc(b1-4)[Fuc(a1-6)]GlcNAc
# Method in brief: as §1
# [3] = molecular target: Gal(b1-4)GlcNAc(b1-3)Gal(b1-4)GlcNAc(b1-3)Gal(b1-4)GlcNAc(b1-3)Gal(b1-4)GlcNAc(b1-3)Gal(b1-4)GlcNAc(b1-2)Man(a1-3)[Gal(b1-4)GlcNAc(b1-3)Gal(b1-4)GlcNAc(b1-3)Gal(b1-4)GlcNAc(b1-3)Gal(b1-4)GlcNAc(b1-3)Gal(b1-4)GlcNAc(b1-2)Man(a1-6)]Man(b1-4)GlcNAc(b1-4)GlcNAc
# Method in brief: as §1
# [4] = molecular target: Gal(b1-4)GlcNAc(b1-3)Gal(b1-4)GlcNAc(b1-3)Gal(b1-4)GlcNAc(b1-3)Gal(b1-4)GlcNAc(b1-3)Gal(b1-4)GlcNAc(b1-2)Man(a1-3)[Gal(b1-4)GlcNAc(b1-3)Gal(b1-4)GlcNAc(b1-3)Gal(b1-4)GlcNAc(b1-3)Gal(b1-4)GlcNAc(b1-3)Gal(b1-4)GlcNAc(b1-2)Man(a1-6)]Man(b1-4)GlcNAc(b1-4)[Fuc(a1-6)]GlcNAc
# Method in brief: as §1
# [5] = molecular target: Gal(b1-4)GlcNAc(b1-3)Gal(b1-4)GlcNAc(b1-3)Gal(b1-4)GlcNAc(b1-3)Gal(b1-4)GlcNAc(b1-3)Gal(b1-4)GlcNAc(b1-2)[Gal(b1-4)GlcNAc(b1-3)Gal(b1-4)GlcNAc(b1-3)Gal(b1-4)GlcNAc(b1-3)Gal(b1-4)GlcNAc(b1-3)Gal(b1-4)GlcNAc(b1-6)]Man(a1-6)[Gal(b1-4)GlcNAc(b1-3)Gal(b1-4)GlcNAc(b1-3)Gal(b1-4)GlcNAc(b1-3)Gal(b1-4)GlcNAc(b1-3)Gal(b1-4)GlcNAc(b1-2)Man(a1-3)]Man(b1-4)GlcNAc(b1-4)[Fuc(a1-6)]GlcNAc
# Method in brief: as §1
# [6] = molecular target: Gal(b1-4)GlcNAc(b1-3)Gal(b1-4)GlcNAc(b1-3)Gal(b1-4)GlcNAc(b1-3)Gal(b1-4)GlcNAc(b1-3)Gal(b1-4)GlcNAc(b1-3)Gal(b1-4)GlcNAc(b1-2)Man(a1-3)[Gal(b1-4)GlcNAc(b1-3)Gal(b1-4)GlcNAc(b1-3)Gal(b1-4)GlcNAc(b1-3)Gal(b1-4)GlcNAc(b1-3)Gal(b1-4)GlcNAc(b1-3)Gal(b1-4)GlcNAc(b1-2)Man(a1-6)]Man(b1-4)GlcNAc(b1-4)GlcNAc
# Method in brief: as §1
# [7] = molecular target: Gal(b1-4)GlcNAc(b1-3)Gal(b1-4)GlcNAc(b1-3)GalNAc
# Method in brief: as §1
# [8] = molecular target: Gal(b1-4)GlcNAc(b1-3)Gal(b1-4)GlcNAc(b1-3)[Gal(b1-4)GlcNAc(b1-3)Gal(b1-4)GlcNAc(b1-6)]GalNAc
# Method in brief: as §1
# [9] = molecular target: Gal(b1-4)GlcNAc(b1-3)Gal(b1-4)GlcNAc(b1-6)[Gal(b1-3)]GalNAc
# Method in brief: as §1
# [10] = molecular target: Gal(b1-4)GlcNAc(b1-3)Gal(b1-4)[Fuc(a1-3)]GlcNAc(b1-3)Gal(b1-4)[Fuc(a1-3)]GlcNAc
# Method in brief: as §1
# [11] = molecular target: Gal(b1-4)GlcNAc(b1-3)GalNAc
# Method in brief: as §1
# [12] = molecular target: Gal(b1-4)GlcNAc(b1-3)[Fuc(a1-3)GlcNAc(b1-6)]Gal(b1-4)Glc
# Method in brief: as §1
# [13] = molecular target: Gal(b1-4)GlcNAc(b1-3)[Gal(b1-4)GlcNAc(b1-6)]Gal(b1-4)GlcNAc
# Method in brief: as §1
# [14] = molecular target: Gal(b1-4)GlcNAc(b1-3)[GlcNAc(b1-6)]Gal(b1-4)GlcNAc
# Method in brief: as §1
# [15] = molecular target: Gal(b1-4)GlcNAc(b1-6)Gal(b1-4)GlcNAc
# Method in brief: as §1
# [16] = molecular target: Gal(b1-4)GlcNAc(b1-6)GalNAc
# Method in brief: as §1
# [17] = molecular target: Gal(b1-4)GlcNAc(b1-6)[Gal(b1-3)]GalNAc
# Method in brief: as §1
# [18] = molecular target: Gal(b1-4)GlcNAc(b1-6)[Gal(b1-4)GlcNAc(b1-3)]GalNAc
# Method in brief: as §1
# Gal(b1-4)GlcNAc6P = molecular target: Gal(b1-4)GlcNAc6P
# Method in brief: as §1
# Gal(b1-6)Gal = molecular target: Gal(b1-6)Gal
# Method in brief: as §1
# Gal3S(b1-3)GalNAc = molecular target: Gal3S(b1-3)GalNAc
# Method in brief: as §1
# Gal3S(b1-3)GlcNAc = molecular target: Gal3S(b1-3)GlcNAc
# Method in brief: as §1
# [19] = molecular target: Gal3S(b1-3)[Fuc(a1-4)]GlcNAc
# Method in brief: as §1
# Gal3S(b1-4)Glc = molecular target: Gal3S(b1-4)Glc
# Method in brief: as §1
# Gal3S(b1-4)Glc6S = molecular target: Gal3S(b1-4)Glc6S
# Method in brief: as §1
# Gal3S(b1-4)GlcNAc = molecular target: Gal3S(b1-4)GlcNAc
# Method in brief: as §1
# [20] = molecular target: Gal3S(b1-4)[Fuc(a1-3)]Glc6S
# Method in brief: as §1
# [21] = molecular target: Gal3S(b1-4)[Fuc(a1-3)]GlcNAc
# Method in brief: as §1
# [22] = molecular target: Gal3S(b1-4)[Fuc(a1-3)]GlcNAc6S
# Method in brief: as §1
# Gal3S4S(b1-4)GlcNAc = molecular target: Gal3S4S(b1-4)GlcNAc
# Method in brief: as §1
# Gal3S6S(b1-4)GlcNAc = molecular target: Gal3S6S(b1-4)GlcNAc
# Method in brief: as §1
# Gal3S6S(b1-4)GlcNAc6S = molecular target: Gal3S6S(b1-4)GlcNAc6S
# Method in brief: as §1
# Gal4S(b1-4)GlcNAc = molecular target: Gal4S(b1-4)GlcNAc
# Method in brief: as §1
# Gal4S6S(b1-4)GlcNAc = molecular target: Gal4S6S(b1-4)GlcNAc
# Method in brief: as §1
# Gal6P(b1-4)GlcNAc = molecular target: Gal6P(b1-4)GlcNAc
# Method in brief: as §1
# Gal6S(b1-3)GlcNAc = molecular target: Gal6S(b1-3)GlcNAc
# Method in brief: as §1
# Gal6S(b1-3)GlcNAc6S = molecular target: Gal6S(b1-3)GlcNAc6S
# Method in brief: as §1
# Gal6S(b1-4)Glc = molecular target: Gal6S(b1-4)Glc
# Method in brief: as §1
binder,measurement,setting,value
B1,glycan array binding signal (z-score),[1],2.21
same,glycan array binding signal (z-score),[2],2.31
same,glycan array binding signal (z-score),[3],1.68
same,glycan array binding signal (z-score),[4],2.91
same,glycan array binding signal (z-score),[5],1.41
same,glycan array binding signal (z-score),[6],2.06
same,glycan array binding signal (z-score),[7],-0.708
same,glycan array binding signal (z-score),[8],1.02
same,glycan array binding signal (z-score),[9],-0.527
same,glycan array binding signal (z-score),[10],0.32
same,glycan array binding signal (z-score),[11],-0.398
same,glycan array binding signal (z-score),[12],1.07
same,glycan array binding signal (z-score),[13],0.569
same,glycan array binding signal (z-score),[14],0.129
same,glycan array binding signal (z-score),[15],1.71
same,glycan array binding signal (z-score),[16],-0.228
same,glycan array binding signal (z-score),[17],0.501
same,glycan array binding signal (z-score),[18],-0.463
same,glycan array binding signal (z-score),Gal(b1-4)GlcNAc6P,0.031
same,glycan array binding signal (z-score),Gal(b1-6)Gal,-0.497
same,glycan array binding signal (z-score),Gal3S(b1-3)GalNAc,0.068
same,glycan array binding signal (z-score),Gal3S(b1-3)GlcNAc,0.338
same,glycan array binding signal (z-score),[19],-0.176
same,glycan array binding signal (z-score),Gal3S(b1-4)Glc,-0.609
same,glycan array binding signal (z-score),Gal3S(b1-4)Glc6S,-0.714
same,glycan array binding signal (z-score),Gal3S(b1-4)GlcNAc,0.517
same,glycan array binding signal (z-score),[20],0.93
same,glycan array binding signal (z-score),[21],0.73
same,glycan array binding signal (z-score),[22],0.338
same,glycan array binding signal (z-score),Gal3S4S(b1-4)GlcNAc,0.238
same,glycan array binding signal (z-score),Gal3S6S(b1-4)GlcNAc,-0.552
same,glycan array binding signal (z-score),Gal3S6S(b1-4)GlcNAc6S,0.927
same,glycan array binding signal (z-score),Gal4S(b1-4)GlcNAc,0.498
same,glycan array binding signal (z-score),Gal4S6S(b1-4)GlcNAc,1.53
same,glycan array binding signal (z-score),Gal6P(b1-4)GlcNAc,-0.674
same,glycan array binding signal (z-score),Gal6S(b1-3)GlcNAc,-1.57
same,glycan array binding signal (z-score),Gal6S(b1-3)GlcNAc6S,-0.017
same,glycan array binding signal (z-score),Gal6S(b1-4)Glc,-0.281

# 2 entries picked at random from those above:
binder,measurement,setting,value
B1,glycan array binding signal (z-score),[16],-0.228
same,glycan array binding signal (z-score),Gal3S(b1-4)Glc,-0.609
